The text below walks through data of patent publication US6458923B1 (Scios Inc., priority 1991, dated 2002).

The nature of this data set: Boc solid-phase peptide synthesis; Boc-Arg(Tos)-PAM resin. Conditions: whole synthesis, scale 0.25 g resin.

In the case of “D-Arg-Arg-Pro-Hyp-Gly-Thi-Ser-(D-Ric)-Tic-Arg”, the crude mass is on record as 176 mg.
